Results reported in paper PMC7515719.

Chains of the proteins cited; added tags and fusions are not shown. Chains listed by the source or under a name are the forms on record and can include a tag or linker.
XPGn3 wild-type del113-749 (Homo sapiens), one chain, as listed by the source, chain 1 of 2: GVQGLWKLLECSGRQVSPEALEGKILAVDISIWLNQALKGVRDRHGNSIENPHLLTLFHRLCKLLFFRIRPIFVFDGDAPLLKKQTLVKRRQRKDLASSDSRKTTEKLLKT
XPGn3 wild-type del113-749 (Homo sapiens), one chain, as listed by the source, chain 2 of 2: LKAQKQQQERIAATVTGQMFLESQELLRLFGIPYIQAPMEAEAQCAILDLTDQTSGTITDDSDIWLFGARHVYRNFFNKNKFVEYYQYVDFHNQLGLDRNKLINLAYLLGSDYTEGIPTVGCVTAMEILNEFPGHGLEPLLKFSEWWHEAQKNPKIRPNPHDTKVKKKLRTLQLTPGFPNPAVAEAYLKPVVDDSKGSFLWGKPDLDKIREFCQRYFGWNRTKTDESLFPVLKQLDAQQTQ

System: XPGn3 wild-type del113-749 (Homo sapiens)
Experiment: EMSA
Conditions: EMSA: 2.5 uM DNA, 1-8 uM protein, 25 C, 30 min, 7% native PAGE; recombinant protein; protein details: N-terminal His-TEV cleaved

## TACTTGCAGAGTTCGC / GCGAACTCTGCAGAGCA [DNA-2 splayed-arm]
  binding result: binds

The exact form of at least one protein or probe is not confirmed. At least one verdict was read from the data and is not stated in words by the source.
